{"source": "PubChem BioAssay AID493014", "about": "(National Center for Advancing Translational Sciences (NCATS), 2011)", "note": "Among all 340,000 compounds or so, about 170 (0.05%) were called active. The shares of active, inactive and inconclusive entries below differ from those in the screen. Calls come from the whole dose curve; as a rule, active = well fitted inhibition curve with a large enough effect in the signal ratio, with a control signal flat (not every such curve was filed as active); inconclusive = small, poorly fitted or top-dose-only effect, or effect the other way, or a change in a side signal; inactive = flat fitted curve, though single readings scatter; the % refers to the signal ratio. Potencies of inconclusive entries are doubtful fits and often do not repeat. Potency is the fitted concentration of half-maximal effect.", "data": [{"assay": "qHTS Assay to Find Inhibitors of Chronic Active B-Cell Receptor Signaling;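 for activity change, negative = inhibition: plate controls were basal doxycycline-induced cells for no effect and cells given 10 µM MG132 for full effect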", "conditions": "ABC-DLBCL IkBa-CBG/CBR reporter, luminescence ratio (green luciferase fused to IkBa over red control in TMD8 lymphoma cells), 4 h; activity change, negative = inhibition: at 46.1 µM (top of the series)", "method_in_brief": "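Doxycycline induced both beetle luciferases in TMD8 lymphoma cells; IKK-driven degradation limits the IkappaBalpha-fused green signal, while red luminescence normalises for cell number and nonspecific effects. Compounds tested up to 46 uM, 4 hrs.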", "values": [{"smiles": "COc1ccc(C2CC(c3ccc(Cl)cc3)=NN2c2ccc(S(N)(=O)=O)cc2)cc1", "note": "(stereo unspecified)", "activity change, negative = inhibition": "inconclusive: -19.5%"}, {"smiles": "CCCCN(C(=O)COC(=O)c1ccccc1)c1c(N)n(CCC)c(=O)[nH]c1=O", "activity change, negative = inhibition": "inactive: -4.73%"}, {"smiles": "CCCCNC(=O)c1onc(CSc2ccc(F)cc2)c1C(=O)O", "Potency": "inconclusive: 35.5 µM [falling, single point]"}, {"smiles": "COCCCn1c(C(=O)NCCC2=CCCCC2)cc2c(=O)n3ccccc3nc21", "activity change, negative = inhibition": "inconclusive: 3.38%"}, {"smiles": "COc1ccc(S(N)(=O)=O)cc1C(=O)OCC(=O)N1CCCC(C)C1", "note": "(stereo unspecified)", "activity change, negative = inhibition": "inactive: 4.77%"}, {"smiles": "CCn1c(=O)c2sccc2n(Cc2cc(C(=O)OC)ccc2OC)c1=O", "activity change, negative = inhibition": "inconclusive: 0.0846%"}, {"smiles": "O=C(Cc1ccc([N+](=O)[O-])cc1)NNC(=O)c1ccc2c(c1)OCO2", "Potency": "inconclusive: 7.08 µM [falling, partial curve, poor fit]"}, {"smiles": "O=c1c(O[C@@H]2O[C@H](CO)[C@@H](O)[C@H](O)[C@H]2O)c(-c2ccc(O)c(O)c2)oc2cc(O)cc(O)c12", "activity change, negative = inhibition": "inactive: 14%"}, {"smiles": "Cc1coc2cc3oc(=O)c(Cc4ccccc4)c(C)c3cc12", "activity change, negative = inhibition": "inconclusive: 0.952%"}, {"smiles": "COCCNc1ncnc2c1c(-c1ccccc1)cn2-c1cccc(Cl)c1", "Potency": "inconclusive: 20 µM [rising, partial curve, poor fit]"}, {"smiles": "N=c1c(-c2nc3ccccc3[nH]2)cc(C(=O)c2cccs2)nn1-c1ccccc1", "Potency": "inconclusive: 0.00411 µM [falling, full curve, poor fit]"}, {"smiles": "COc1ccc2c(c1)C(NC(C)=O)C(=O)N2CCc1ccccc1", "note": "(stereo unspecified)", "activity change, negative = inhibition": "inconclusive: 6.16%"}, {"smiles": "CC(C)N=C(NS(=O)(=O)c1ccccc1)C(Cl)(Cl)Cl", "Potency": "inconclusive: 2.91 µM [falling, full curve]"}, {"smiles": "CC(C)(C)c1ccc(-c2noc(CCC(=O)N3CCOCC3)n2)cc1", "Potency": "inconclusive: 35.5 µM [falling, single point]"}, {"smiles": "Cc1c(CCC(=O)N2CCC[C@H]2C(=O)O)c(=O)oc2c(C)c3oc4c(c3cc12)CCCC4", "Potency": "inconclusive: 14.1 µM [cytotoxic, partial curve, poor fit]"}, {"smiles": "O=S(=O)(N/N=C\\c1cccn1-c1ccccc1)c1ccc2ccccc2c1", "activity change, negative = inhibition": "inconclusive: -0.932%"}, {"smiles": "CCN(CC)S(=O)(=O)c1cccc(-c2cn3cc(C)ccc3n2)c1", "Potency": "inconclusive: 5.8 µM [rising, full curve]"}, {"smiles": "Cc1cc(/C=N/NS(=O)(=O)c2ccc(F)c(Cl)c2)no1", "activity change, negative = inhibition": "inconclusive: -1.7%"}, {"smiles": "CCOC(=O)C1CCN(C(=O)CN2C(=O)C(C(C)C)Oc3ccccc32)CC1", "note": "(stereo unspecified)", "activity change, negative = inhibition": "inactive: 18.4%"}, {"smiles": "O=C(NCc1cccnc1)c1cccc(S(=O)(=O)Nc2ccc(F)cc2)c1", "activity change, negative = inhibition": "inactive: 1.5%"}, {"smiles": "Cn1nnc(NC(=O)c2ccccc2F)n1", "activity change, negative = inhibition": "inconclusive: -2.71%"}, {"smiles": "CN(C)/C=C/c1onc(-c2ccccc2Cl)c1C#N", "activity change, negative = inhibition": "inconclusive: -11.3%"}, {"smiles": "Cc1ccc(NC(=O)C(NS(=O)(=O)c2cccc3nsnc23)C(C)C)nc1", "note": "(stereo unspecified)", "activity change, negative = inhibition": "inconclusive: -28.3%"}, {"smiles": "COc1cccc(NC(=S)N/N=C2/CCCCc3ccccc32)c1", "activity change, negative = inhibition": "inconclusive: 19.9%"}, {"smiles": "Cc1ccccc1CS(=O)(=O)Cc1ccc(C(=O)NCc2ccc(F)cc2)o1", "activity change, negative = inhibition": "inactive: -7.25%"}, {"smiles": "CC1=C(C#N)C(=O)N(C2CCS(=O)(=O)C2)C(=O)/C1=C\\c1ccco1", "note": "(stereo unspecified)", "activity change, negative = inhibition": "inactive: 12.2%"}, {"smiles": "CCCCn1c(CN(C)Cc2ccccc2)nc2c1c(=O)n(C)c(=O)n2C", "activity change, negative = inhibition": "inconclusive: 10.5%"}, {"smiles": "COc1cccc(NC(=O)CCNC(=O)Cn2ccc3ccccc3c2=O)c1", "activity change, negative = inhibition": "inconclusive: -10.7%"}, {"smiles": "c1ccc(COc2ccc(OCCN3CCCCC3)cc2)cc1", "activity change, negative = inhibition": "inconclusive: 5.03%"}, {"smiles": "CCCCN(C)C(=O)c1cc2c(s1)-c1ccccc1S(=O)(=O)C2", "activity change, negative = inhibition": "inconclusive: -0.44%"}, {"smiles": "COc1ccc([N+](=O)[O-])cc1NC(=O)COC(=O)c1ccccc1C(=O)c1ccccc1", "activity change, negative = inhibition": "inactive: 0.269%"}, {"smiles": "O=C(OCCOc1ccccc1F)c1cccc(S(=O)(=O)N2CCOCC2)c1", "activity change, negative = inhibition": "inactive: 3.71%"}, {"smiles": "O=C(Nc1nc2c(s1)CCCC2)c1ccc(Br)s1", "Potency": "inconclusive: 17.8 µM [falling, single point]"}, {"smiles": "C[C@H]1COC(=O)[C@@H](CC(=O)OC(C)(C)C)C/C=C\\C[C@@H](CC(=O)N(CCO)Cc2ccccc2)C(=O)N1", "activity change, negative = inhibition": "inactive: -3.86%"}, {"smiles": "O=C1CC(c2ccc(Cl)cc2)N=C(NC(=O)c2ccccc2)N1", "note": "(stereo unspecified)", "activity change, negative = inhibition": "inconclusive: 11.9%"}, {"smiles": "CC1CCC(C(C)C)C(OC(=O)Cn2c(-c3ccc(F)cc3)[n+](C)c3ccccc32)C1", "note": "(stereo unspecified)", "activity change, negative = inhibition": "inconclusive: -5.89%"}, {"smiles": "Cc1cccc(-c2nc(CS(=O)CC(=O)N3CCN(C)CC3)c(C)o2)c1", "note": "(stereo unspecified)", "activity change, negative = inhibition": "inconclusive: -1.65%"}, {"smiles": "CC(C)Oc1ccc(C(=O)Nc2ccc(Cl)c(S(=O)(=O)Nc3ccc(Cl)cc3)c2)cc1", "Potency": "inconclusive: 32.6 µM [falling, partial curve, poor fit]"}, {"smiles": "COc1ccc(CNC(=O)C/C(C)=N/NC(=O)C23CC4CC(CC(C4)C2)C3)cc1", "activity change, negative = inhibition": "inconclusive: -24.7%"}, {"smiles": "COc1ccc(CCNC(=O)COC(=O)c2cc3ccccc3oc2=O)cc1OC", "activity change, negative = inhibition": "inconclusive: -2.7%"}, {"smiles": "O=c1oc2ccccc2c(Nc2ccc(Cl)cc2)c1[N+](=O)[O-]", "activity change, negative = inhibition": "inconclusive: 3.03%"}, {"smiles": "COc1cc([C@@H]2c3cc4c(cc3[C@@H](NC3CCN(Cc5ccccc5)CC3)[C@H]3COC(=O)[C@H]23)OCO4)cc(OC)c1O", "activity change, negative = inhibition": "inconclusive: 9.21%"}, {"smiles": "O=C(NCCc1ccccc1)c1cc(Sc2ccc(F)cc2F)nc2ccccc12", "activity change, negative = inhibition": "inactive: 0.4%"}, {"smiles": "Nc1ccccc1SC1CC(=O)N(c2ccccc2Cl)C1=O", "note": "(stereo unspecified)", "activity change, negative = inhibition": "inconclusive: -3.44%"}, {"smiles": "Cc1ccc(F)cc1NC(=O)N1CCN(C2c3ccccc3-c3ccccc32)CC1", "activity change, negative = inhibition": "inconclusive: -0.904%"}, {"smiles": "Cc1cccc(CS(=O)(=O)c2ncc(Cl)c(C(=O)NCc3ccccc3)n2)c1", "activity change, negative = inhibition": "inconclusive: 20.4%"}, {"smiles": "Nc1ncc(Br)cc1S(=O)(=O)NCCC(=O)NCCc1ccc(Cl)cc1", "Potency": "inconclusive: 12.6 µM [falling, partial curve, poor fit]"}, {"smiles": "COC(=O)CNC(=O)Cc1c(C)n(C(=O)c2ccc(Cl)cc2)c2ccc(OC)cc12", "Potency": "inconclusive: 35.5 µM [falling, single point]"}, {"smiles": "COc1cccc(CN(C)CC(=O)Nc2sc3c(c2C#N)CCC3)c1OC", "activity change, negative = inhibition": "inconclusive: -0.978%"}, {"smiles": "COc1ccc(-n2cc(-c3ccc(C)cc3)[n+]3c2SCC3)cc1", "activity change, negative = inhibition": "inactive: 0.467%"}, {"smiles": "C/C(CC(=O)N1CCN(C=O)CC1)=N\\NC(=O)c1cccc([N+](=O)[O-])c1", "activity change, negative = inhibition": "inactive: 0.537%"}, {"smiles": "Cn1c(=O)cc(SCC(=O)NCc2ccc(F)cc2)c2ccccc21", "Potency": "inconclusive: 35.5 µM [falling, single point]"}, {"smiles": "COCCN(C(=O)CSc1nc2ccccc2c(=O)n1CCOC)c1c(N)n(Cc2ccccc2)c(=O)[nH]c1=O", "activity change, negative = inhibition": "inactive: 2.06%"}, {"smiles": "Nc1cc(=O)[nH]c(SCC(=O)Nc2ccc(F)c(Cl)c2)n1", "Potency": "inconclusive: 18.4 µM [falling, partial curve]"}, {"smiles": "O=C(Nc1ccccc1)C1=C(N2CCOCC2)/C(=C/c2cccnc2)CC1", "Potency": "inconclusive: 29.1 µM [falling, single point]"}, {"smiles": "Cc1cc(C(=O)CSc2nnc(Cc3ccccc3)o2)c(C)n1Cc1ccc2c(c1)OCO2", "Potency": "inconclusive: 0.116 µM [rising, full curve, poor fit]"}, {"smiles": "CCC(C)NC(=O)CSc1nnc(-c2ccc(OC)c(OC)c2)c(-c2ccc(OC)c(OC)c2)n1", "note": "(stereo unspecified)", "activity change, negative = inhibition": "inactive: -9.03%"}, {"smiles": "CC1=NC(=O)C(N=Nc2ccccc2C(=O)O)N1c1ccccc1", "note": "(stereo unspecified)", "Potency": "inconclusive: 35.5 µM [rising, single point]"}, {"smiles": "CCn1cc(C(=O)N(C)Cc2ccc(OC(F)F)cc2)c(=O)c2ccc(C)nc21", "activity change, negative = inhibition": "inconclusive: -21.4%"}, {"smiles": "OC(COc1ccc(Br)cc1)CN1CCC(Cc2ccccc2)CC1", "note": "(stereo unspecified)", "activity change, negative = inhibition": "inactive: -6.29%"}, {"smiles": "O=C(Oc1ccccc1)c1ccccc1OS(=O)(=O)c1ccccc1", "activity change, negative = inhibition": "inconclusive: 0.164%"}, {"smiles": "O=c1[nH]c(CN2CCCCC2)nc2ccccc12", "activity change, negative = inhibition": "inconclusive: 7.71%"}, {"smiles": "CCn1cc(CN2CCCC(C(=O)Nc3ccc(-c4cscn4)cc3)C2)cn1", "note": "(stereo unspecified)", "Potency": "inconclusive: 10 µM [falling, partial curve, poor fit]"}, {"smiles": "COC(=O)c1c(C)nc(C)c(C(=O)OC)c1-c1ccc(OC)cc1", "Potency": "inconclusive: 12.6 µM [falling, single point]"}, {"smiles": "CC(=O)Nc1ccc(S(=O)(=O)NNC(=O)c2cc3c4ccccc4n(C)c3s2)cc1", "activity change, negative = inhibition": "inconclusive: -0.438%"}, {"smiles": "CCc1cc2c(CN3CCN(CCO)CC3)cc(=O)oc2cc1O", "activity change, negative = inhibition": "inconclusive: 6.43%"}, {"smiles": "CCOC(=O)/C(=C\\c1ccc(OC)c(OC)c1)C(=O)c1cccnc1", "activity change, negative = inhibition": "inconclusive: 5.43%"}, {"smiles": "CCc1nc(N2CCC3(CC2)OCCO3)c2nnn(Cc3ccccc3)c2n1", "activity change, negative = inhibition": "inactive: -16.9%"}, {"smiles": "CCOC(=O)C1CCN(C(=O)c2cc3c(OC)c(OC)c(OC)cc3[nH]2)CC1", "Potency": "inconclusive: 31.6 µM [falling, single point]"}, {"smiles": "CCN1C(Nc2ccccc2)=NC[C@@H]1Cc1ccccc1", "Potency": "inconclusive: 11.2 µM [falling, partial curve]"}, {"smiles": "CCc1ccc(N(CC(=O)Nc2ccccc2C(=O)N2CCOCC2)S(C)(=O)=O)cc1", "activity change, negative = inhibition": "inactive: -0.684%"}, {"smiles": "COc1cccc(-c2nc(CS(=O)CC(=O)NCCc3ccccc3)c(C)o2)c1", "note": "(stereo unspecified)", "activity change, negative = inhibition": "inconclusive: 1.98%"}, {"smiles": "Cc1ccc(C(=O)Nc2nc(-c3cc(Cl)sc3Cl)cs2)cc1", "activity change, negative = inhibition": "inactive: 15.8%"}, {"smiles": "COC(=O)c1ccccc1NC(=O)CSc1nccn1C", "Potency": "inconclusive: 20 µM [falling, single point]"}, {"smiles": "CCOC(=O)C1=C(O)/C(=C/c2ccc(OCC(=O)O)c(OCC)c2)SC1=Nc1ccccc1", "activity change, negative = inhibition": "inconclusive: -2.73%"}, {"smiles": "O=C(C1=NNCC1c1ccc(Cl)cc1)C1CO1", "note": "(stereo unspecified)", "activity change, negative = inhibition": "inconclusive: 5.9%"}]}]}
